Assay results from publication PMC8983240.

Chains of the proteins cited; added tags and fusions are not shown.
UniProt P17302: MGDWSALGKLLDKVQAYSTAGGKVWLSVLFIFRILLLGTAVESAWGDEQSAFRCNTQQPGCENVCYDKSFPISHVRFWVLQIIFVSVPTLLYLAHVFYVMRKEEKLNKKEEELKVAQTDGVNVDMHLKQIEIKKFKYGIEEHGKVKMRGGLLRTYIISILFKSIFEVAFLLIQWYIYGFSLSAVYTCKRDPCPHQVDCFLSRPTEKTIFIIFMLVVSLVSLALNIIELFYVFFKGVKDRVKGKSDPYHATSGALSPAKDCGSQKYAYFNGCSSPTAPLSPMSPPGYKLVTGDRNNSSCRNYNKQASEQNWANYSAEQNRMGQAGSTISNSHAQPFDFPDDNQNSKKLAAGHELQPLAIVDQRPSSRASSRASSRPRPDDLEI
UniProt Q93008: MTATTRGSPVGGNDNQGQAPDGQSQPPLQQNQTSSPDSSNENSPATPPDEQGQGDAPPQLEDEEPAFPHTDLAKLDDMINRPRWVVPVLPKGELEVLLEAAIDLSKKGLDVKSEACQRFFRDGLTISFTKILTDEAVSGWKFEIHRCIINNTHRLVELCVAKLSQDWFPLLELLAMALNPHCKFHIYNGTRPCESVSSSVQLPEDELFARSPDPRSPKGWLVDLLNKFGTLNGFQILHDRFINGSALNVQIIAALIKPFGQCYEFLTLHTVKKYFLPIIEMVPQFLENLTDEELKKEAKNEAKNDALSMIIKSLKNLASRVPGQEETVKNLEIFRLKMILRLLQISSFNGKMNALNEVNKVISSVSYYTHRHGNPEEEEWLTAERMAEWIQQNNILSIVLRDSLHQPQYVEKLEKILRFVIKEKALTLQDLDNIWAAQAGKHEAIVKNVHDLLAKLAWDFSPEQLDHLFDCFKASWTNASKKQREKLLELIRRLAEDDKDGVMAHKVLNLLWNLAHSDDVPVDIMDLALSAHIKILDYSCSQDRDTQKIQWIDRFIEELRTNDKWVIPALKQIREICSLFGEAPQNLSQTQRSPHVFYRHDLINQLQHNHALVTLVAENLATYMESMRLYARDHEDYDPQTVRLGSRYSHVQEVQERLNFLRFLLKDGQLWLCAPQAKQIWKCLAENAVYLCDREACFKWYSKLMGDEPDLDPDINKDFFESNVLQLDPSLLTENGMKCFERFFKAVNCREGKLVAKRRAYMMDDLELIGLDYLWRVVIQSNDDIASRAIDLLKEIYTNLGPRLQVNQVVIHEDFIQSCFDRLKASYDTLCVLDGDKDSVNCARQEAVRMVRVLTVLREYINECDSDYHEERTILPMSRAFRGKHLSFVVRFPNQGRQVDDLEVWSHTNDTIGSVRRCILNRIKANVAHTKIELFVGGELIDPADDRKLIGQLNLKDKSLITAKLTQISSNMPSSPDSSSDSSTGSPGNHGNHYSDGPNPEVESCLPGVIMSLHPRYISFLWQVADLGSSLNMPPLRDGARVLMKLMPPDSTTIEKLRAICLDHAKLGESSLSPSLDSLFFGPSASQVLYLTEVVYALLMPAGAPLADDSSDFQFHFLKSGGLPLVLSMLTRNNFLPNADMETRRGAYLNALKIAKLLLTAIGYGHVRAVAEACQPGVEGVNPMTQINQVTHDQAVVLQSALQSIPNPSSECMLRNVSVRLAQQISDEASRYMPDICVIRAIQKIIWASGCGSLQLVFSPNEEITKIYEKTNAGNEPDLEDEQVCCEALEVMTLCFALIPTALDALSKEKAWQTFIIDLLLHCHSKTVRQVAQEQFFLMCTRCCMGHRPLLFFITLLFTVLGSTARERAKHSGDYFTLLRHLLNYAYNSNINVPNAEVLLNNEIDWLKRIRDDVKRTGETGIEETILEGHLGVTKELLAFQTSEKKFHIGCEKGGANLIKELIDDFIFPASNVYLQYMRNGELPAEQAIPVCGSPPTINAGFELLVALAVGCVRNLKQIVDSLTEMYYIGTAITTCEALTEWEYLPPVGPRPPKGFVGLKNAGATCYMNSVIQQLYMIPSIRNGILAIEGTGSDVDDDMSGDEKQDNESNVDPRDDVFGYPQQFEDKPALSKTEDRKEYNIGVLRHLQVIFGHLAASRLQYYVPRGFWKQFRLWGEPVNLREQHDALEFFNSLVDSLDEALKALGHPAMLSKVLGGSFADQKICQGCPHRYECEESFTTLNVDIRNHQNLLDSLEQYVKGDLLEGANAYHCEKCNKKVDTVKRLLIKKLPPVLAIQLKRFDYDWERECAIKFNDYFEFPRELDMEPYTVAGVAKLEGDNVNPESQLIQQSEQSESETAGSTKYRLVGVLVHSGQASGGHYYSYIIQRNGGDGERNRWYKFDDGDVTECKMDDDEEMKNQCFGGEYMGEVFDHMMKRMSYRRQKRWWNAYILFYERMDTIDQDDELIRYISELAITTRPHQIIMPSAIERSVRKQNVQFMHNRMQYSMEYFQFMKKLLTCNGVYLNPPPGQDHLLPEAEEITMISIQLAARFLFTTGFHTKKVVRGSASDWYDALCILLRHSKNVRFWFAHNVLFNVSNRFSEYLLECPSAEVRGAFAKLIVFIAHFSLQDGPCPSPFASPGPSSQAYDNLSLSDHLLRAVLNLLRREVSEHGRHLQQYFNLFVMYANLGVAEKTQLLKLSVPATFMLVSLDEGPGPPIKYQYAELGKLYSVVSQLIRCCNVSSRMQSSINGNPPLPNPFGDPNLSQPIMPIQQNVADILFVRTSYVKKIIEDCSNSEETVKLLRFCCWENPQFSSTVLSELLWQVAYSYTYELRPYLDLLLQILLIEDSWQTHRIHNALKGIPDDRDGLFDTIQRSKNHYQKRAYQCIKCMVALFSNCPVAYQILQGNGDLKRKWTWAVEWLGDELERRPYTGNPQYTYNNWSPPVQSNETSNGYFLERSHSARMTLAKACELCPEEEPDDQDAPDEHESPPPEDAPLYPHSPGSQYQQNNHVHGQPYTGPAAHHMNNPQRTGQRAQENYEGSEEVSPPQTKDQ

Target: Connexin 43 with a 3x Flag tag (Cx43-Flag) (UniProt P17302)
Assay: affinity purification with mass spectrometry; extracts of ligament fibroblasts stably expressing Cx43-Flag precleared with IgG and protein A-G beads, anti-Flag antibody overnight at 4°C, eluted with Flag peptides, SDS-PAGE, bands excised, trypsin, LC-MS

binding: binds
Substance: Ubiquitin-specific protease 9 X-chromosome (USP9X) (from UniProt Q93008 1-2554) (enzyme)

Results are given in words; binding and its absence hold for the method and conditions named. Binding seen in cells or lysates may run through a third protein. A yes stands for co-enrichment or nearness to the bait. Other partners may have been found.
